PubChem BioAssay AID1259254, NCATS | 2017
In all, the deposit lists about 59,000 reagents; this is an unselected part. Over the whole deposit, about 1,550 (2.6%) got an active call. 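G2 share is only a proxy for re-replication; each gene was hit by three separate siRNAs, and active genes were retested.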 The numbers tell different reagents against one gene apart. Further read-outs or replicates are left out here. Not given: the amount of reagent.

- Screen: 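Finding genes that stop cells copying their DNA twice in one cycle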 (primary screen)
- Cells: human HCT116 colorectal cancer cells
- Reagents: single siRNA against human genes
- Timing: 3 days
- Detection: 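Imaged Hoechst DNA stain sorts each cell into a cycle phase by DNA amount; per plate, G2 fraction set to 0% for non-targeting and 100% for GMNN siRNA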
- Reading the numbers: G2 robust z-score: higher = more G2 cells, more excess DNA replication
- Call rule: 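Active siRNAs have a G2 robust z of 5 or more median absolute deviations over the median, which in these data means about 38% or higher of GMNN control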

NRARP #1 — G2 robust z-score = -0.276; Call = inactive
NRARP #2 — G2 robust z-score = -0.586; Call = inactive
NRARP #3 — G2 robust z-score = -0.372; Call = inactive
ATP5F1B #1 — G2 robust z-score = 0.152; Call = inactive
ATP5F1B #2 — G2 robust z-score = 3.92; Call = inactive
ATP5F1B #3 — G2 robust z-score = 0.847; Call = inactive
SLITRK5 #1 — G2 robust z-score = -0.771; Call = inactive
SLITRK5 #2 — G2 robust z-score = -1.59; Call = inactive
SLITRK5 #3 — G2 robust z-score = -0.0377; Call = inactive
TMEM243 #1 — G2 robust z-score = 3.02; Call = inactive
TMEM243 #2 — G2 robust z-score = 2.41; Call = inactive
TMEM243 #3 — G2 robust z-score = -0.164; Call = inactive
ATP1A1 #1 — G2 robust z-score = 3.64; Call = inactive
ATP1A1 #2 — G2 robust z-score = -1.15; Call = inactive
ATP1A1 #3 — G2 robust z-score = 1.32; Call = inactive
CACNG6 #1 — G2 robust z-score = 3.13; Call = inactive
CACNG6 #2 — G2 robust z-score = -1.07; Call = inactive
CACNG6 #3 — G2 robust z-score = 2.4; Call = inactive
UBR5 #1 — G2 robust z-score = -0.405; Call = inactive
UBR5 #2 — G2 robust z-score = -0.636; Call = inactive
UBR5 #3 — G2 robust z-score = -1.32; Call = inactive
PRR25 #1 — G2 robust z-score = 0.616; Call = inactive
PRR25 #2 — G2 robust z-score = 0.333; Call = inactive
PRR25 #3 — G2 robust z-score = 0.0921; Call = inactive

Individual results from above.
NRARP #1, G2 robust z-score → -0.276
Entry of CACNG6 #1 under “Call”: inactive
Result of SLITRK5 #2 under “Call”: inactive
